Laboratory results published in the supplement of paper PMC6411743.
± gives the standard deviation of the averaged measurements. The list shows a part of the results, in another mix than the full data.

Chains of the proteins cited; added tags and fusions are not shown. Lines headed by an entry give the natural chain unless they say otherwise; changes in a name come on top.
UniProt Q8N9M1: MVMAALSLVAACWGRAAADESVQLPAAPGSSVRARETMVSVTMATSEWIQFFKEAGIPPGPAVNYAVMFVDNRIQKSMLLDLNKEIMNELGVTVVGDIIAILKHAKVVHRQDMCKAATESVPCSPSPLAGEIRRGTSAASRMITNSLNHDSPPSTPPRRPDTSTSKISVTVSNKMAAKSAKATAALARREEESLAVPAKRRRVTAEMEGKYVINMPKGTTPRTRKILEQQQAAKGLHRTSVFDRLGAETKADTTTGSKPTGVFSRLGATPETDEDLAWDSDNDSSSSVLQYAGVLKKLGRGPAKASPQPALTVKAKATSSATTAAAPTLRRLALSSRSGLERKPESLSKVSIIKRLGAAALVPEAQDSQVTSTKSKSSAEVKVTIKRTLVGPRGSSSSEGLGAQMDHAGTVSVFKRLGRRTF
UniProt Q8IWF6: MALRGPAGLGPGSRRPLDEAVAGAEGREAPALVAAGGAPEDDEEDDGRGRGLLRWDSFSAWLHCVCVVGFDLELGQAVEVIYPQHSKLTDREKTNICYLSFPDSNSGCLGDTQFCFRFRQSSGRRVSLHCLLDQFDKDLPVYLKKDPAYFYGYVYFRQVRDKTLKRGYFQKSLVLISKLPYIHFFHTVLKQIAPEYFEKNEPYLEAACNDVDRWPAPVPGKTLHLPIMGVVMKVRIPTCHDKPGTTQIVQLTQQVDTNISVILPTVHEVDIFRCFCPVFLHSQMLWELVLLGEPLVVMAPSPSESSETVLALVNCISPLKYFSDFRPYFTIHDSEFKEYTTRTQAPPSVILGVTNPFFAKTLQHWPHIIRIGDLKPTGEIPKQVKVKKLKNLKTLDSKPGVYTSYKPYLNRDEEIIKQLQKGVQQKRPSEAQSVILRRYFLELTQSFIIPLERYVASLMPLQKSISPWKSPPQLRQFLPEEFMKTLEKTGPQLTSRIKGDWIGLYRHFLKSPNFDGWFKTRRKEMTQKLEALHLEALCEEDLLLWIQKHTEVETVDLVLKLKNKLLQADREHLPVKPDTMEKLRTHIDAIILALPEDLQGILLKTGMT
UniProt Q8N8R7: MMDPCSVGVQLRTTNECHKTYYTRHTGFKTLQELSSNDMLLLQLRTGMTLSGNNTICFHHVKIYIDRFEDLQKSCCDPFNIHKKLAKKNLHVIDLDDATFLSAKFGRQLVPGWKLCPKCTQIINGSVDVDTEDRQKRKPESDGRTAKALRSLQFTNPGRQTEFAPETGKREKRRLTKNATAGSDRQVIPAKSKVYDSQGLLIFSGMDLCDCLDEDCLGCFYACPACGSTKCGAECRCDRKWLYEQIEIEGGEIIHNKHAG
UniProt Q8IY81: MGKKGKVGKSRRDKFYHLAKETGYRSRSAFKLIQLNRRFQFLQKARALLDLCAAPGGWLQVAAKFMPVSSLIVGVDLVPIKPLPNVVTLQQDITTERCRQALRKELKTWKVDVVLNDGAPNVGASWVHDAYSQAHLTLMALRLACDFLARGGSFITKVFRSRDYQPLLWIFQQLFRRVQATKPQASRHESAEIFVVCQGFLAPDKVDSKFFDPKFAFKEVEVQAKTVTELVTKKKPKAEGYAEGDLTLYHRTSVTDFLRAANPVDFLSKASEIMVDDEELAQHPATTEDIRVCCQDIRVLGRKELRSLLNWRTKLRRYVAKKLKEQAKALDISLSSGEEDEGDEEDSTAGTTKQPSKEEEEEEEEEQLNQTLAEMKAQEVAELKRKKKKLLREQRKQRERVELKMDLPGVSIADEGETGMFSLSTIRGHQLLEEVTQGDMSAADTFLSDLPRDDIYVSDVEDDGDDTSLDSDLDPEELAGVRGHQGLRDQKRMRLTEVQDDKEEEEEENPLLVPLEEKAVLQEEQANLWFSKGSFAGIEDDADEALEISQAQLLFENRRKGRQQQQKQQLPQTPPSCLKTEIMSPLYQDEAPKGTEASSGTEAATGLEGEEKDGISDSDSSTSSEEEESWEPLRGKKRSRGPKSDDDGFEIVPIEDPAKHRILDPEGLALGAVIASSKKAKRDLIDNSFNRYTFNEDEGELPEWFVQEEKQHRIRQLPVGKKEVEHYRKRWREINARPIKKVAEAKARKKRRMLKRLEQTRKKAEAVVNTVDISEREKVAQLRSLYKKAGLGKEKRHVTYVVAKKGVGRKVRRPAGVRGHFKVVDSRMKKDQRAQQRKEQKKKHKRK
UniProt Q8N5F7: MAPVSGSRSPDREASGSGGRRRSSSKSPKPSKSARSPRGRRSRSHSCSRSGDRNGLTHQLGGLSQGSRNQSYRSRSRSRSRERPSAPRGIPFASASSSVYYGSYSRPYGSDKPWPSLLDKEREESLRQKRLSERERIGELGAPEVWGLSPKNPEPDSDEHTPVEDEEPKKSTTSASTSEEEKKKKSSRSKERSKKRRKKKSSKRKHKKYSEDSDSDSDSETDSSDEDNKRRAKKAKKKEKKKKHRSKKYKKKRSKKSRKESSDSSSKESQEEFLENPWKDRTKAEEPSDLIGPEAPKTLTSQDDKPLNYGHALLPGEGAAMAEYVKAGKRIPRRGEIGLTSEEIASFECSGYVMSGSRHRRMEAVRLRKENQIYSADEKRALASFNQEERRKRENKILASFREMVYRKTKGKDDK
UniProt Q8IXB1: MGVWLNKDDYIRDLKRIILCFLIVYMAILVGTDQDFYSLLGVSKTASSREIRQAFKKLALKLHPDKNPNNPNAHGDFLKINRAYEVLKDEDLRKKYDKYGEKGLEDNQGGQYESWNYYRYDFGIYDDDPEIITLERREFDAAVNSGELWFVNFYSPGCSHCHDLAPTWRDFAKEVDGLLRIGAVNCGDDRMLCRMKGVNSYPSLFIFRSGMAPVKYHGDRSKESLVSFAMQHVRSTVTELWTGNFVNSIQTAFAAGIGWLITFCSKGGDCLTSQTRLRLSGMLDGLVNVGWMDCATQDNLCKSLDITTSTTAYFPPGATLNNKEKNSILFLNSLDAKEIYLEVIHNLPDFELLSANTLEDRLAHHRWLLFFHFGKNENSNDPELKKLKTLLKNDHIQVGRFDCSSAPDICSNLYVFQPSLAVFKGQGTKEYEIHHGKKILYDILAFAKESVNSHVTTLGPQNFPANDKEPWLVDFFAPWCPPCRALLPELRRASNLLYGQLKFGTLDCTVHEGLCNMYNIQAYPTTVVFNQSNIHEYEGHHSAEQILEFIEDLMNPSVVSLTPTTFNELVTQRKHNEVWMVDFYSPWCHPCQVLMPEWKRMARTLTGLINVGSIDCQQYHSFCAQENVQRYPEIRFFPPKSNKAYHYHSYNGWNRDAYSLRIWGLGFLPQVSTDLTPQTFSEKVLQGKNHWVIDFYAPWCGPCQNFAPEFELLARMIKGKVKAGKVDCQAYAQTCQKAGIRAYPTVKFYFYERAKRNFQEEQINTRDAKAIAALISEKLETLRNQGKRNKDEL
UniProt Q8NBP0: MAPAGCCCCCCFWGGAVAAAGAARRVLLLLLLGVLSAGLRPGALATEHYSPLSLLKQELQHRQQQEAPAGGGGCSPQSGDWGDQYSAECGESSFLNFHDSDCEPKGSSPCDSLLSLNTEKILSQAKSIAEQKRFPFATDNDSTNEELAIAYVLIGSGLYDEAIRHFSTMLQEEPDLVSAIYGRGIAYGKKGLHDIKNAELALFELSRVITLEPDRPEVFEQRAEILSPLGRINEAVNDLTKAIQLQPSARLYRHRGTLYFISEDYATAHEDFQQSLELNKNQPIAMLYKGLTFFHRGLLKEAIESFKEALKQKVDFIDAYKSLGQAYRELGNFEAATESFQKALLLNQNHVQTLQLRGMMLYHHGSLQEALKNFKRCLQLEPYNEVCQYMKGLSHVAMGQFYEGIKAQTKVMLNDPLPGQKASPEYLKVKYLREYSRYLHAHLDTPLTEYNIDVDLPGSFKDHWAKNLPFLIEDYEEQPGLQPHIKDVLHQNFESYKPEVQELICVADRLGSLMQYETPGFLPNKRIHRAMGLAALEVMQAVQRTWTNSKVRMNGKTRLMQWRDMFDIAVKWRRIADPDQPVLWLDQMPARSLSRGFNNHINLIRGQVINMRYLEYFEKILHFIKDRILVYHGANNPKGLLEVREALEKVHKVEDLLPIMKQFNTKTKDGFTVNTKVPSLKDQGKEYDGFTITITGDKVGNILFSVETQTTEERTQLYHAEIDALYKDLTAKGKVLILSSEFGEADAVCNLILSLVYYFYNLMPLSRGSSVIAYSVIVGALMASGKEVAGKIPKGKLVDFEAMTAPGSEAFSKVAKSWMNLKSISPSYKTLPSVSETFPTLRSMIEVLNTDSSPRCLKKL
UniProt Q8N0W3: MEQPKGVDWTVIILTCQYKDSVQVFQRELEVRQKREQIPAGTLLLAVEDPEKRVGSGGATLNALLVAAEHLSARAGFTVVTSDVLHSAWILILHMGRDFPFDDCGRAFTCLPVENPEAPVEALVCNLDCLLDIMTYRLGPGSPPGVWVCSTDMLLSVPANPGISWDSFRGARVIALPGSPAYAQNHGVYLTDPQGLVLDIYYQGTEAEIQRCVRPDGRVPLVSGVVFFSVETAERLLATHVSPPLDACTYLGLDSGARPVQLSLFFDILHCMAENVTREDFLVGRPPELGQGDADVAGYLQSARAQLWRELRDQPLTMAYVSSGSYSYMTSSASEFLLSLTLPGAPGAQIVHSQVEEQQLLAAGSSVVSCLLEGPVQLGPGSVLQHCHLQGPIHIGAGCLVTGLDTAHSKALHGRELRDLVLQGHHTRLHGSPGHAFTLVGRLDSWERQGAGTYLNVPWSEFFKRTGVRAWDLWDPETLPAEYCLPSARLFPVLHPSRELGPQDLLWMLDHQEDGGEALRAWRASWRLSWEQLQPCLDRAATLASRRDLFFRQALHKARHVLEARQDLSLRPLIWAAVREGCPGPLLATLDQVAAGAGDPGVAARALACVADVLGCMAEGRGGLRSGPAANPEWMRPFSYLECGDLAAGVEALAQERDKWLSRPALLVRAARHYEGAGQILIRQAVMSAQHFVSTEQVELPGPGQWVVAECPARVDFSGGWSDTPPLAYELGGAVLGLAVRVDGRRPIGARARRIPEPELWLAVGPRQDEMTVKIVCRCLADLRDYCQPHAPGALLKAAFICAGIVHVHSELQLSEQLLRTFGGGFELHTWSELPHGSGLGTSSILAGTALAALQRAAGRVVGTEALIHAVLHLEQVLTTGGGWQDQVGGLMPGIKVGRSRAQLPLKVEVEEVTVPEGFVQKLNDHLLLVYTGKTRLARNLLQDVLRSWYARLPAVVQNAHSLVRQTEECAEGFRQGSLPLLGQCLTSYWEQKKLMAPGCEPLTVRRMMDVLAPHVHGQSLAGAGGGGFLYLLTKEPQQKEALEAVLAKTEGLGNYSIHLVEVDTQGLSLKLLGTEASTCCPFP
UniProt Q8NBU5: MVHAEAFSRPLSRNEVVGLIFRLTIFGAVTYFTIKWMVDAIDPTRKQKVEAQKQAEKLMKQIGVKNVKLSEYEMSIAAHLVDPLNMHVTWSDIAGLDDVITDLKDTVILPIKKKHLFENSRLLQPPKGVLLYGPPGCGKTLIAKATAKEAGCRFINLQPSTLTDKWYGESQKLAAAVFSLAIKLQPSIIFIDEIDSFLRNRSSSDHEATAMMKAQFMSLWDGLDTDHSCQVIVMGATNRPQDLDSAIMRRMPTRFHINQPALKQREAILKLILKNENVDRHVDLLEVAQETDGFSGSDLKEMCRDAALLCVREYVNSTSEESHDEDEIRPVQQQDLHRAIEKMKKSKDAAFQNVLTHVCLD
UniProt Q8NHV4, whole entry: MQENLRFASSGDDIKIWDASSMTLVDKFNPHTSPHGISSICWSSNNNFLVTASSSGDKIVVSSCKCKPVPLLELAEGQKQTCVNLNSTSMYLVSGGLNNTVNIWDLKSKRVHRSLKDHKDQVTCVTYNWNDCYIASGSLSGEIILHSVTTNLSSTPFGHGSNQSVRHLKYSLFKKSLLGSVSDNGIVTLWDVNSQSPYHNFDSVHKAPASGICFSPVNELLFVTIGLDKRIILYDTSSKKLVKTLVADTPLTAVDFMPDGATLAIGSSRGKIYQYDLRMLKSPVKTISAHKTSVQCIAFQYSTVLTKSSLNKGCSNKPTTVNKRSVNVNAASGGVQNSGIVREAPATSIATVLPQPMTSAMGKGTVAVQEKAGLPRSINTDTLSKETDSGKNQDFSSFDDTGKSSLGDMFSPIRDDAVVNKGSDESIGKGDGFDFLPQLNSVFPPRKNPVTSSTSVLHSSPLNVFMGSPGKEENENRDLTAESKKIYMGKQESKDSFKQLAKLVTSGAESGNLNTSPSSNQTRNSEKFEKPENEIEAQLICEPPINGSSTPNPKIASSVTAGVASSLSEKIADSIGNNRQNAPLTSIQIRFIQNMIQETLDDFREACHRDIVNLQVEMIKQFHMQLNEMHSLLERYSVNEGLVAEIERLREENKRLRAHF

Compound: Nc1ncnc2c1ncn2[C@@H]1O[C@H](COP(=O)(O)OP(=O)(O)OP(=O)(O)O)[C@@H](O)[C@H]1O [adenosine triphosphate]
Assay: NP40-soluble protein abundance relative to vehicle (solubility fold change) (ratio); higher = more soluble protein in presence of ATP
Procedure, shortened: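 In three independent experiments, Jurkat crude lysate made by Dounce homogenisation was treated for 10 min at room temperature and then 3 min at 37 °C with eight concentrations ranging from 0.1 to 10 mM. It was then solubilised with 0.8% NP40 plus benzonase for 60 min at 4 °C and ultracentrifuged. The supernatant was TMT-labelled for LC-MS/MS, and each value is the fold change against the detergent-processed vehicle for the same replicate, using vsn-normalised intensities.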

## UniProt Q8N9M1 and related entries
concentration: 1mM
  NP40-soluble protein abundance: 0.942 ± 0.054
concentration: 2mM
  NP40-soluble protein abundance: 0.922 ± 0.017
concentration: 4mM
  NP40-soluble protein abundance: 0.982 ± 0.052
concentration: 6mM
  NP40-soluble protein abundance: 0.99 ± 0.062
concentration: 8mM
  NP40-soluble protein abundance: 1 ± 0.067
concentration: 10mM
  NP40-soluble protein abundance: 1.11 ± 0.12

## ARFGAP2 (UniProt Q8N6H7)
concentration: 1mM
  NP40-soluble protein abundance: 0.9493 ± 0.006
concentration: 2mM
  NP40-soluble protein abundance: 0.946 ± 0.014
concentration: 4mM
  NP40-soluble protein abundance: 0.926 ± 0.012
concentration: 6mM
  NP40-soluble protein abundance: 0.975 ± 0.014
concentration: 8mM
  NP40-soluble protein abundance: 0.91 ± 0.037
concentration: 10mM
  NP40-soluble protein abundance: 0.932 ± 0.012

## SUPV3L1 (UniProt Q8IYB8)
concentration: 1mM
  NP40-soluble protein abundance: 1.05 ± 0.028
concentration: 2mM
  NP40-soluble protein abundance: 1.02 ± 0.029
concentration: 4mM
  NP40-soluble protein abundance: 1.01 ± 0.02
concentration: 6mM
  NP40-soluble protein abundance: 0.969 ± 0.059
concentration: 8mM
  NP40-soluble protein abundance: 1.03 ± 0.026
concentration: 10mM
  NP40-soluble protein abundance: 0.986 ± 0.033

## UniProt Q8IWF6
concentration: 1mM
  NP40-soluble protein abundance: 0.977 ± 0.059
concentration: 2mM
  NP40-soluble protein abundance: 0.973 ± 0.054
concentration: 4mM
  NP40-soluble protein abundance: 0.96 ± 0.054
concentration: 6mM
  NP40-soluble protein abundance: 0.935 ± 0.08
concentration: 8mM
  NP40-soluble protein abundance: 0.946 ± 0.09
concentration: 10mM
  NP40-soluble protein abundance: 0.974 ± 0.034

## UniProt Q8N8R7
concentration: 1mM
  NP40-soluble protein abundance: 0.981 ± 0.046
concentration: 2mM
  NP40-soluble protein abundance: 0.992 ± 0.031
concentration: 4mM
  NP40-soluble protein abundance: 0.94 ± 0.033
concentration: 6mM
  NP40-soluble protein abundance: 0.962 ± 0.031
concentration: 8mM
  NP40-soluble protein abundance: 0.962 ± 0.04
concentration: 10mM
  NP40-soluble protein abundance: 0.899 ± 0.065

## FTSJ3 (UniProt Q8IY81)
concentration: 1mM
  NP40-soluble protein abundance: 1.04 ± 0.086
concentration: 2mM
  NP40-soluble protein abundance: 1.06 ± 0.064
concentration: 4mM
  NP40-soluble protein abundance: 1.1 ± 0.084
concentration: 6mM
  NP40-soluble protein abundance: 1.15 ± 0.091
concentration: 8mM
  NP40-soluble protein abundance: 1.15 ± 0.075
concentration: 10mM
  NP40-soluble protein abundance: 1.17 ± 0.14

## NKAP (UniProt Q8N5F7)
concentration: 1mM
  NP40-soluble protein abundance: 1.02 ± 0.08
concentration: 2mM
  NP40-soluble protein abundance: 1.05 ± 0.061
concentration: 4mM
  NP40-soluble protein abundance: 1.07 ± 0.068
concentration: 6mM
  NP40-soluble protein abundance: 1.05 ± 0.066
concentration: 8mM
  NP40-soluble protein abundance: 1.1 ± 0.062
concentration: 10mM
  NP40-soluble protein abundance: 1.11 ± 0.088

## THNSL1 (UniProt Q8IYQ7)
concentration: 1mM
  NP40-soluble protein abundance: 1.01 ± 0.064
concentration: 2mM
  NP40-soluble protein abundance: 1.01 ± 0.058
concentration: 4mM
  NP40-soluble protein abundance: 0.992 ± 0.067
concentration: 6mM
  NP40-soluble protein abundance: 0.981 ± 0.1
concentration: 8mM
  NP40-soluble protein abundance: 0.988 ± 0.07
concentration: 10mM
  NP40-soluble protein abundance: 0.994 ± 0.028

## UniProt Q8IXB1 and related entries
concentration: 1mM
  NP40-soluble protein abundance: 1.02 ± 0.12
concentration: 2mM
  NP40-soluble protein abundance: 0.968 ± 0.082
concentration: 4mM
  NP40-soluble protein abundance: 0.983 ± 0.048
concentration: 6mM
  NP40-soluble protein abundance: 0.951 ± 0.077
concentration: 8mM
  NP40-soluble protein abundance: 1.04 ± 0.083
concentration: 10mM
  NP40-soluble protein abundance: 1.01 ± 0.072

## TTC13 (UniProt Q8NBP0)
concentration: 1mM
  NP40-soluble protein abundance: 1.12 ± 0.11
concentration: 2mM
  NP40-soluble protein abundance: 1.1 ± 0.087
concentration: 4mM
  NP40-soluble protein abundance: 1.07 ± 0.12
concentration: 6mM
  NP40-soluble protein abundance: 1.09 ± 0.06
concentration: 8mM
  NP40-soluble protein abundance: 1.1 ± 0.054
concentration: 10mM
  NP40-soluble protein abundance: 1.14 ± 0.048

## UniProt Q8N0W3 and related entries
concentration: 1mM
  NP40-soluble protein abundance: 0.961 ± 0.066
concentration: 2mM
  NP40-soluble protein abundance: 0.95 ± 0.047
concentration: 4mM
  NP40-soluble protein abundance: 1 ± 0.044
concentration: 6mM
  NP40-soluble protein abundance: 0.886 ± 0.082
concentration: 8mM
  NP40-soluble protein abundance: 0.968 ± 0.032
concentration: 10mM
  NP40-soluble protein abundance: 1 ± 0.014

## UniProt Q8NBU5
concentration: 1mM
  NP40-soluble protein abundance: 1.02 ± 0.059
concentration: 2mM
  NP40-soluble protein abundance: 0.981 ± 0.029
concentration: 4mM
  NP40-soluble protein abundance: 0.939 ± 0.047
concentration: 6mM
  NP40-soluble protein abundance: 0.983 ± 0.095
concentration: 8mM
  NP40-soluble protein abundance: 0.964 ± 0.031
concentration: 10mM
  NP40-soluble protein abundance: 0.965 ± 0.064

## UniProt Q8NHV4 and related entries
concentration: 1mM
  NP40-soluble protein abundance: 0.958 ± 0.024
concentration: 2mM
  NP40-soluble protein abundance: 0.962 ± 0.013
concentration: 4mM
  NP40-soluble protein abundance: 0.96 ± 0.016
concentration: 6mM
  NP40-soluble protein abundance: 0.994 ± 0.069
concentration: 8mM
  NP40-soluble protein abundance: 0.947 ± 0.026
concentration: 10mM
  NP40-soluble protein abundance: 0.991 ± 0.038

## PSD4 (UniProt Q8NDX1)
concentration: 1mM
  NP40-soluble protein abundance: 1.07 ± 0.069
concentration: 2mM
  NP40-soluble protein abundance: 1.05 ± 0.074
concentration: 4mM
  NP40-soluble protein abundance: 1.04 ± 0.058
concentration: 6mM
  NP40-soluble protein abundance: 1.07 ± 0.042
concentration: 8mM
  NP40-soluble protein abundance: 1.03 ± 0.076
concentration: 10mM
  NP40-soluble protein abundance: 1.04 ± 0.058

## ZNF687 (UniProt Q8N1G0)
concentration: 1mM
  NP40-soluble protein abundance: 1.06 ± 0.067
concentration: 2mM
  NP40-soluble protein abundance: 1.03 ± 0.071
concentration: 4mM
  NP40-soluble protein abundance: 1.04 ± 0.071
concentration: 6mM
  NP40-soluble protein abundance: 1.13 ± 0.15
concentration: 8mM
  NP40-soluble protein abundance: 1.09 ± 0.12
concentration: 10mM
  NP40-soluble protein abundance: 1.11 ± 0.068
